From PubChem BioAssay AID2685 (National Center for Advancing Translational Sciences (NCATS), 2010)
The other results are listed elsewhere or left out. These are further read-outs of the screen, such as a control signal, another cell line or another target. No call is given for them. Most of these compounds were active or inconclusive in the main read-out, so they are no random draw. Potencies come from curve fits of mixed quality, noted in brackets.

Assay: qHTS Assay for Lipid Storage Modulators in Drosophila S3 Cells;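 on cell number change: cells counted by Cell Tracker Red CMTPX staining in the red channel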
Conditions: BODIPY lipid droplet fluorescence, 18-24 h; for cell number change: measured here: cell count max response, cells fed with added oleic acid
In short: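 Drosophila S3 cells got compounds at several concentrations plus oleic acid (400 uM solution). Laser-scanning cytometry with 488 nm excitation read lipid droplets at 500-530 nm and cells at 575-640 nm. Percent activity was relative to 20 uM Triacsin C.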

[1] = measured here: cell number channel AC50, cells fed with added oleic acid
[2] = measured here: lipid fluorescence (Fed channel) AC50, cells fed with added oleic acid

| Structure (SMILES) | cell number change [%] | AC50 [1] | AC50 [2] |
| --- | --- | --- | --- |
| O=C(Cc1ccc(Cl)cc1)NNC(=O)c1cnccn1 | 40.9 | 29100 nM [rising, single point] | 4.61 nM [falling, full curve, poor fit] |
| N#CC1=C(N)Oc2n[nH]c(-c3ccccn3)c2C1c1c(F)cccc1Cl (stereo not drawn) | 57.3 | 920 nM [rising, full curve] | 1160 nM [rising, full curve] |
| Cc1nc2ccc(NC(=O)CCS(=O)(=O)c3ccc(Cl)cc3)cc2s1 | 8.1 | – | – |
| Cc1cccc(-c2nnc3n2N=C(c2ccc(Br)cc2)CS3)c1 | – | – | 517 nM [rising, full curve] |
| NS(=O)(=O)c1ccc(CCNC(=O)c2ccc(=O)[nH]c2)cc1 | 15.1 | – | – |
| Cc1cc(OCc2cc(C(=O)N(C)C3CCOC3)no2)cc(C)c1Cl (stereo not drawn) | -24.1 | – | – |
| O=C(NCc1ccc(F)cc1)c1ccc(N2CCc3ccccc32)c([N+](=O)[O-])c1 | -37.2 | 29100 nM [falling, single point] | 29100 nM [falling, single point] |
| CCOC(=O)C1CCN(C(=O)CC(C)c2ccccc2)CC1 (stereo not drawn) | -7.21 | – | 18400 nM [falling, partial curve, poor fit] |
| CC(=O)NC(CC(=O)NC1CCCc2ccccc21)c1ccccc1 (stereo not drawn) | 5.24 | – | – |
| COc1cc(O)c2c(=O)c(-c3ccc(O[C@@H]4O[C@H](CO)[C@@H](O)[C@H](O)[C@H]4O)cc3)coc2c1 | -26.1 | – | 29100 nM [falling, single point] |
| CC1=C(C(N)=O)C(c2ccccc2F)NC(=O)N1 (stereo not drawn) | -10.8 | – | – |
| COc1cc(-c2nn3c(-c4cccnc4)nnc3s2)cc(OC)c1OC | 7.39 | – | – |
| O=C1c2[nH]nc(-c3ccccc3O)c2C(c2ccc(F)cc2)N1CC1CCCO1 (stereo not drawn) | -44.6 | 32600 nM [falling, single point] | – |
| Cc1ccsc1C(=O)c1sccc1C | -9.73 | – | 116 nM [falling, full curve, poor fit] |
| CC(NCC(O)COCc1cccs1)C1CC2CCC1C2 (stereo not drawn) | -4.14 | 92 nM [rising, full curve, poor fit] | – |
| Cc1sc2ncnc(N3CCCC(C)C3)c2c1C (stereo not drawn) | 6.89 | – | – |
| COc1ccccc1N1C(=S)N=C(Nc2c(C)cccc2C)C12CCCC2 | 1.01 | – | 1840 nM [rising, full curve, poor fit] |
| CC(=O)Nc1cccc(C2=CC(c3ccco3)n3ncnc3N2)c1 (stereo not drawn) | -27.7 | 1460 nM [rising, partial curve] | – |
| Cn1cc(S(=O)(=O)N2CCCC2)cc1C(=O)NCc1ccc(F)cc1 | 7.49 | – | 16400 nM [rising, partial curve] |

Full records from above. Values in the order: cell number change [%]	AC50 [1]	AC50 [2]
`COc1cc(O)c2c(=O)c(-c3ccc(O[C@@H]4O[C@H](CO)[C@@H](O)[C@H](O)[C@H]4O)cc3)coc2c1` in the list: -26.1	–	29100 nM [falling, single point]
`Cc1cccc(-c2nnc3n2N=C(c2ccc(Br)cc2)CS3)c1` in the list: –	–	517 nM [rising, full curve]
